No constants are given. Whether binding was seen depends on the method and setting. Some entries that bind do so weakly or less than the wild type.
Columns and labels:
[1] = biological target: T1, PF4/heparin complex (human PF4 complexed with heparin) (human) (UniProt P02776); assay: competition EIA with full-length KKO
T1 sequence: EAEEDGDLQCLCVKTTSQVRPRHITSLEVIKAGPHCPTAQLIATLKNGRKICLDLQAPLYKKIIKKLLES

[2] = biological target: T1, PF4/heparin complex (human PF4 complexed with heparin) (human); assay: BLI (Octet), against wildtype scFv
[3] = biological target: T1, PF4/heparin complex (human PF4 complexed with heparin) (human); assay: BLI (Octet), biotinylated PF4/heparin on streptavidin sensors, scFv at 1 µg/mL
[4] = biological target: T2, Human PF4 (CXCL4), biotinylated, without heparin (human) (UniProt P02776); assay: BLI (Octet), biotinylated PF4 without heparin on streptavidin sensors, scFv at 1 µg/mL
T2 sequence (chain, biotinylated with EZ-link-Sulfo-NHS-LC-Biotin (sites not stated)): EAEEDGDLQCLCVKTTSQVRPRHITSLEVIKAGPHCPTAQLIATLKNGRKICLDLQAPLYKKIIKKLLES

[5] = biological target: T1, PF4/heparin complex (human PF4 complexed with heparin) (human); assay: streptavidin/biotin-heparin/PF4 inhibition EIA; competitor full-length KKO at 2 µg/mL, detected with anti-mouse IgG (n=3)
[6] = biological target: T1, PF4/heparin complex (human PF4 complexed with heparin) (human); assay: BLI (Octet), biotinylated PF4/heparin on streptavidin sensors, scFv 1 µg/mL

Measured: binding

B1: Mutant E scFv, scFv(Y156H, D180G, Q233P) (scFv)
scFv: DIQMIQSQKFMSTSVGDRVTVTCKASQNVGTNVAWYQQKPGQSPNALIYSASYRYSGVPDRFTGSGSGTDFTLTITNVQSEDLADYFCQQYNSYPLTFGTGTKLDLKGGGGSGGGGSGGGGSVQLQQSGAELVKPGASVKLSCKASGYTFTNYFIHWVKQRPGQGLEWIGEINPKNGDTGFNEKFESRATLTVDKSSSTAYMQLSSLTSEDSAIYYCTRSPYGNNYGFTYWGPGTLVTVSA
notes: VL-linker-VH; histidine-tagged, from E. coli BL21; also called Mut E; not shown: histidine tag from the pADL-22c vector
binds: all assays above

Reference: patent US20250011413A1 (MCMASTER UNIVERSITY, published 2025)
